Data reported in PubChem BioAssay AID743255 (National Center for Advancing Translational Sciences (NCATS), 2014).
The campaign covered roughly 390,000 compounds. About 910 (0.23%) were called active. This list was built around the results that the source calls inconclusive (neither active nor inactive); the mix of calls is not that of the screen. Calls follow the shape of the dose curve; as a rule, active = well fitted inhibition curve with a large enough effect; inconclusive = small, poorly fitted or top-dose-only effect; inactive = no such curve, though single readings can be large or run the other way. Potencies of inconclusive entries are doubtful fits and often do not repeat.

Chains of the proteins cited; added tags and fusions are not shown. Lines headed by an entry give the natural chain unless they say otherwise; changes in a name come on top.
UniProt O94782: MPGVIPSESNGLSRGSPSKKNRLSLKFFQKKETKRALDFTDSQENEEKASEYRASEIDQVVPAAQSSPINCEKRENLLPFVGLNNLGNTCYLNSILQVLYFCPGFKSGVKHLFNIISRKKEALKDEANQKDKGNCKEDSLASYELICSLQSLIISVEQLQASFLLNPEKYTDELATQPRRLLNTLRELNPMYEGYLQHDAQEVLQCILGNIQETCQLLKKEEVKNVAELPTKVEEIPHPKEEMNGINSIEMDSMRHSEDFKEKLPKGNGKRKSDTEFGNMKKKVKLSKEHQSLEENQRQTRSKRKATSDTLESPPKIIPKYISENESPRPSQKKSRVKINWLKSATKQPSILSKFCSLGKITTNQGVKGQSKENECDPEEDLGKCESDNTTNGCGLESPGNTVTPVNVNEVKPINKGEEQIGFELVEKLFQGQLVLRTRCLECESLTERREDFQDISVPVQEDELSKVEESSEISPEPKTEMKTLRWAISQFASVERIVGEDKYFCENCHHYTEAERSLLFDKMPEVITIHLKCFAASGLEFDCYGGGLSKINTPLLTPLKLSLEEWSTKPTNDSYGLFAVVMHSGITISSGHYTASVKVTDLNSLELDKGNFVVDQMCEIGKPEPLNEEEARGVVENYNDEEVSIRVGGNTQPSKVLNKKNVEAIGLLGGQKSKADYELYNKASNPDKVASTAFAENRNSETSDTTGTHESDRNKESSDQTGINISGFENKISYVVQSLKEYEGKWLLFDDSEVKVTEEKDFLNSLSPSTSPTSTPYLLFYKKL

Molecular target: Ubiquitin carboxyl-terminal hydrolase 1 (Homo sapiens) (UniProt O94782)
Experiment: Inhibitors of USP1/UAF1: Primary Screen; also: nearly all actives have a fitted effect of over 60% in size
Details: recombinant USP1/UAF1, Ub-Rhodamine cleavage fluorescence; activity change, negative = inhibition: at 57.1 µM (top of the series)
How it was run: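 Step one: compound is pinned into 1nM USP1/UAF1 in HEPES pH 7.8 buffer with TCEP. Step two: 15 min room-temperature incubation. Step three: Ub-Rho (150nM final) starts cleavage, tracked by fluorescence over six one-minute reads.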
% is scaled to controls: 0 for no effect and ±100 for the full control effect; potency is read from the fitted curve at half-maximal effect.

SMILES	Potency	activity change, negative = inhibition
COc1ccc(CNC(=O)[C@@H]2CC=C[C@@H]3CCN(Cc4ccccc4)C(=O)[C@@H]32)cc1	inconclusive: 12.6 µM [inhibitor, partial curve]	–
COc1ccccc1NC(=O)c1c(C)cc(C)nc1SCC(=O)Nc1ccc(C)c(C)c1	–	inactive: -24%
C#CCOCCOCCOCCNc1nc(N2CCN(C(=O)[C@H]([C@@H](C)CC)n3cc(CCCCN)nn3)CC2)nc(N2CCN(C(=O)[C@H](C)n3cc(CCCN=C(N)N)nn3)CC2)n1	inconclusive: 50.1 µM [inhibitor, partial curve, poor fit]	–
NC(=O)c1cc([N+](=O)[O-])ccc1Nc1ccccc1	inconclusive: 44.7 µM [inhibitor, partial curve, poor fit]	–
CC(C)(C)C(=O)NC(=S)Nc1ccccc1N1CCCC1	inconclusive: 39.8 µM [inhibitor, partial curve]	–
Cc1ccc(C(=O)N2CCc3ccccc32)cc1	inconclusive: 0.631 µM [inhibitor, full curve, poor fit]	–
CC(=O)/C(N=Nc1ccc2c(c1)OCCO2)=C(\C)O	–	inactive: -6.13%
CCN(CC)C(=O)c1cc([N+](=O)[O-])cc2c1-c1ccc([N+](=O)[O-])cc1C2=C(C#N)C#N	inconclusive: 28.2 µM [inhibitor, single point]	–
COc1cccc(C(=O)NC2CCNCC2)c1	–	inactive: 0.0447%
COc1ccc(N=C(NN)c2ccc3ccccc3n2)cc1	–	inactive: -25.8%
COc1ccc(S(=O)(=O)N(C)C[C@H]2OCCCC[C@H](C)Oc3ccc(N(C)C)cc3C(=O)N([C@H](C)CO)C[C@@H]2C)cc1	–	inactive: -20.8%
COc1cc(/C=C2\C(=N)N3N=CSC3=NC2=O)ccc1OS(=O)(=O)c1ccccc1	inconclusive: 6.31 µM [inhibitor, full curve, poor fit]	–
O=C(CSc1ncccn1)Nc1ccc2c(c1)OCO2	inconclusive: 50.1 µM [inhibitor, partial curve, poor fit]	–
CCOC(=O)c1nnn(CC(=O)Nc2cc(C)cc(C)c2)c1C(=O)OCC	inconclusive: 5.62 µM [inhibitor, full curve]	–
Cc1ccc(Cn2c(CCCNC(=O)c3ccco3)nc3ccccc32)cc1	inconclusive: 3.98 µM [inhibitor, full curve]	–
Cc1ccccc1NC(=O)Cn1c(=O)n(Cc2ccc3c(c2)OCO3)c(=O)c2ccc(C(=O)NC3CCCCC3)cc21	–	inactive: -20.3%
Cc1ccc(-c2c(C(=O)NCc3ccc(F)cc3)oc(=O)c3ccccc23)cc1	inconclusive: 39.8 µM [inhibitor, partial curve]	–
CSc1ccc(-c2nc3c(C)cccn3c2Nc2ccc3c(c2)OCCO3)cc1	–	inactive: -16.2%
CCc1ccc(NC(=O)c2ccc3nc(C(C)C)oc3c2)cc1	inconclusive: 35.5 µM [inhibitor, partial curve]	–
O=C1CN(C(=O)c2ccc(Br)o2)C(c2ccccc2)c2cc(Cl)ccc2N1 (stereo not given)	inconclusive: 44.7 µM [inhibitor, partial curve, poor fit]	–

SMILES	Potency	activity change, negative = inhibition
O=C(CN1C(=O)c2ccccc2S1(=O)=O)Nc1cc(S(=O)(=O)N2CCCCC2)ccc1Cl	inconclusive: 11.2 µM [inhibitor, partial curve, poor fit]	–
CCOC(=O)/C(=N/Nc1ccc(Cl)cc1)S(=O)(=O)c1ccccc1	inconclusive: 3.55 µM [inhibitor, partial curve]	–
O=C(/C=C/c1cn(CC(O)CN2CCCCCC2)c2ccccc12)c1cccs1 (stereo not given)	inconclusive: 35.5 µM [inhibitor, partial curve]	–
COc1cccc(CN(C)c2nc(-c3cccs3)nc3ccccc23)c1	inconclusive: 39.8 µM [inhibitor, partial curve, poor fit]	–
COc1ccc(NC(=O)Nc2cccc3c2O[C@H](CN(C)C(=O)Nc2ccc(C(F)(F)F)cc2)[C@@H](C)CN([C@H](C)CO)C3=O)cc1	inconclusive: 100 µM [inhibitor, partial curve, poor fit]	–
Cn1c2ccccc2c2cnn(CC(=O)Nc3cccc(F)c3)c(=O)c21	inconclusive: 0.224 µM [inhibitor, full curve, poor fit]	–
Cc1cccc(C2CC(c3ccc(Br)cc3)Nc3nc(N)nn32)c1 (stereo not given)	inconclusive: 15.8 µM [inhibitor, partial curve]	–
COc1ccc(-c2csc(NNC3=NCCCCC3)n2)cc1	–	inactive: -5.78%
O=C(NCc1ccccc1Cl)C1CCCN(S(=O)(=O)c2cnc[nH]2)C1 (stereo not given)	inconclusive: 0.398 µM [inhibitor, full curve, poor fit]	–
N#Cc1c(N2C(=O)c3ccc(C(=O)O)cc3C2=O)sc2c1CCCC2	inconclusive: 14.1 µM [inhibitor, partial curve, poor fit]	–
CCOc1ccc(C(F)(F)F)cc1NC(=O)c1ccc(OC)c([N+](=O)[O-])c1	inconclusive: 20 µM [inhibitor, partial curve, poor fit]	–
Cc1ccnc(NC(=O)CCC(=O)N(CC(=O)NC(C)(C)C)c2ccc3c(c2)OCO3)c1	–	inactive: -11.8%
COC(=O)Cn1c(CN2CCC(Cc3ccccc3)CC2)nc2c1c(=O)n(C)c(=O)n2C	inconclusive: 25.1 µM [inhibitor, partial curve]	–
COc1cc(NC2=Nc3cccc4cccc2c34)cc(OC)c1OC	–	inactive: -9.73%
COc1ccc(N(C(=O)c2snc(C(N)=O)c2N)C(CC(C)C)C(=O)NCC2CCCO2)cc1 (stereo not given)	inconclusive: 14.1 µM [inhibitor, partial curve, poor fit]	–
CN(C)c1cccc(C(=O)OCC(=O)N(C)c2ccccc2)c1	–	inactive: -25.3%
CCC1Oc2ccc(C)cc2N(CC(=O)NCCN2CCCCCC2)C1=O (stereo not given)	inconclusive: 0.631 µM [inhibitor, partial curve, poor fit]	–
COc1ccc(CCNC(=O)C(CCC(N)=O)NS(=O)(=O)c2ccc(Cl)cc2)cc1OC (stereo not given)	inconclusive: 28.2 µM [inhibitor, partial curve]	–
Cc1ccccc1NC(=S)NCCc1c[nH]c2ccccc12	–	inactive: -19.2%
O=C(COC(=O)CCN1C(=O)/C(=C\C=C\c2ccccc2)SC1=S)Nc1cc(F)ccc1F	inconclusive: 31.6 µM [inhibitor, partial curve]	–
